# Measured values published in patent publication US20200331850A1, “NOVEL SULFONAMIDE CARBOXAMIDE COMPOUNDS” (Inflazome Limited, priority 2017, published 2020).
# By UniProt entry, the sequences of proteins in these tests, tags left out.
# UniProt Q96P20, whole entry: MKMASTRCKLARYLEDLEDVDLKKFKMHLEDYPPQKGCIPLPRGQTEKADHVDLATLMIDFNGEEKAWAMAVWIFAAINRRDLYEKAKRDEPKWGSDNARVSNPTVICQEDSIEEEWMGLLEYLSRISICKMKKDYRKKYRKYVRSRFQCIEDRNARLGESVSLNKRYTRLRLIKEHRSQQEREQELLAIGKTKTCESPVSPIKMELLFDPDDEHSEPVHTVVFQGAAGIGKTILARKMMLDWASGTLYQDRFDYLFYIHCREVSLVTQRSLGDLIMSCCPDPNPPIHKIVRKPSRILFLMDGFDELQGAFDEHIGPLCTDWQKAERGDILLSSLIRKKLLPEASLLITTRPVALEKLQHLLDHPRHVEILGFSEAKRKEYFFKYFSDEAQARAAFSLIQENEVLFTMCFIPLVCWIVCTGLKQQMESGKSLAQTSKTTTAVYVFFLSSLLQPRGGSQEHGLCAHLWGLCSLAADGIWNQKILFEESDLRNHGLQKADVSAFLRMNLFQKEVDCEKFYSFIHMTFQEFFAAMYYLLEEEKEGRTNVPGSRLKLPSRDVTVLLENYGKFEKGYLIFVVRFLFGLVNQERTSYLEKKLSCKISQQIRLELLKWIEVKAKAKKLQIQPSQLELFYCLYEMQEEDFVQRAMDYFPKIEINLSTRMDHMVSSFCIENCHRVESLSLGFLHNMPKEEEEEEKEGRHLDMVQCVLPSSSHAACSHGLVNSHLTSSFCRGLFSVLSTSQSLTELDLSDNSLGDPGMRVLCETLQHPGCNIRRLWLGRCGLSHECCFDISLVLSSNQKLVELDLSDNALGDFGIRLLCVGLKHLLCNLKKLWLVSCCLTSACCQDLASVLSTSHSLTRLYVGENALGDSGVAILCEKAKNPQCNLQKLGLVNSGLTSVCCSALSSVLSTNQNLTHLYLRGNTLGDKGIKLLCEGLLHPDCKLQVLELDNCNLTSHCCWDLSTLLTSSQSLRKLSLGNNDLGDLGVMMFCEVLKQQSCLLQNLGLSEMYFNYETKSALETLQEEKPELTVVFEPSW
# At least one structure is not confirmed: it was looked up by name or label, or the drawing left a doubt.
# Molecular target: NLRP3 (Homo sapiens, UniProt Q96P20)
# Experiment: THP-1 cells pyroptosis assay (LPS + nigericin, resazurin readout)
# Type: cell-based
# Parameters: Seed THP-1 cells (25,000 cells/well) containing 1.0 μg/ml LPS in 40 μl of RPMI medium; host or cells: THP-1 cells, LPS-primed and nigericin-stimulated
# Conditions: NLRP3 inhibitory activity in THP-1 cells, 1.0 μg/ml LPS, 5 μM nigericin
# Description: It is well established that the activation of NLRP3 leads to cell pyroptosis and this feature plays an important part in the manifestation of clinical disease (Yan-gang Liu et al., Cell Death & Disease, 2017, 8(2), e2579; Alexander Wree et al., Hepatology, 2014, 59(3), 898-910; Alex Baldwin et al., Journal of Medicinal Chemistry, 2016, 59(5), 1691-1710; Ema Ozaki et al., Journal of Inflammation Research, 2015, 8, 15-27; Zhen Xie & Gang Zhao, Neuroimmunology Neuroinflammation, 2014, 1(2), 60-65; Mattia Cocco et al., Journal of Medicinal Chemistry, 2014, 57(24), 10366-10382; T. Satoh et al., Cell Death & Disease, 2013, 4, e644). Therefore, it is anticipated that inhibitors of NLRP3 will block pyroptosis, as well as the release of pro-inflammatory cytokines (e.g. IL-1β) from the cell. THP-1 cells (ATCC # TIB-202) were grown in RPMI containing L-glutamine (Gibco #11835) supplemented with 1 mM sodium pyruvate (Sigma # S8636) and penicillin (100 units/ml)/streptomycin (0.1 mg/ml) (Sigma # P4333) in 10% Fetal Bovine Serum (FBS) (Sigma # F0804). The cells were routinely passaged and grown to confluency (˜10^6 cells/ml). On the day of the experiment, THP-1 cells were harvested and resuspended into RPMI medium (without FBS). The cells were then counted and viability (>90%) checked by Trypan blue (Sigma # T8154). […] Plates were read in an Envision reader at Ex 560 nm and Em 590 nm • 9. […]
structure (smiles),measurement,value
C#CCN(C)CCCS(=O)(=O)NC(=O)Nc1c2c(cc3c1CCC3)CCC2 [Example 73],IC50,≤ 800 nM
